Test results from US20260218202.
For part of these data: At least one result comes from cells or an extract, where the contact may be indirect.

Protein sequences, listed by entry. Tags and fused reporters are not part of them. Residues count along the entry.
UniProt O00206, 24-839: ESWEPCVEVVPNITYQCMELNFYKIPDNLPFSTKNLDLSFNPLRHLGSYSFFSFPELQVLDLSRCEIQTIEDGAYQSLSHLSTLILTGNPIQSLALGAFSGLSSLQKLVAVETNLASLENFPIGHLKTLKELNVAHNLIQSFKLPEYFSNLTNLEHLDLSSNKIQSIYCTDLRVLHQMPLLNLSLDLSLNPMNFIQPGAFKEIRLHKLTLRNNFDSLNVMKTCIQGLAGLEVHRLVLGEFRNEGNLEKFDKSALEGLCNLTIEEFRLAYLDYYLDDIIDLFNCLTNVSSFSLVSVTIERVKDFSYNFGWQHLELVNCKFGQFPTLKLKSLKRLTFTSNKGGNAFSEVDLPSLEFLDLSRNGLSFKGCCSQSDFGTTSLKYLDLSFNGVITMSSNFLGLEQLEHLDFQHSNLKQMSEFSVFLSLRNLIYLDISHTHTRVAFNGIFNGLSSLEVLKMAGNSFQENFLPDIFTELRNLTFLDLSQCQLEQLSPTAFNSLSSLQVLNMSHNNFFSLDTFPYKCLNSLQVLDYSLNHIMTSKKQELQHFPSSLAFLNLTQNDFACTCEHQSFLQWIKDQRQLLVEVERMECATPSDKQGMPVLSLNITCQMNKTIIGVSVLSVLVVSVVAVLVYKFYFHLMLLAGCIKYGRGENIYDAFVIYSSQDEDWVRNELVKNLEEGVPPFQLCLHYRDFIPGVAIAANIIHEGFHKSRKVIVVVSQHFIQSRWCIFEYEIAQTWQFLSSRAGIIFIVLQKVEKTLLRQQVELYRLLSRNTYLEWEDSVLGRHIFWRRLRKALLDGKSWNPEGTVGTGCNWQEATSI

Assays:
[1] = molecular target: TLR4 (human, co-expressed with MD-2 and CD14) (Homo sapiens) (UniProt O00206); assay: activity in cells; conditions: protein on the cell surface, protein details: HEK-Blue hTLR4 cells, InvivoGen Hkb-htlr4, single-stranded DNA, variant of ApTOLL (ApTLR#4FT, 4F-T)
[2] = molecular target: TLR4 (human, co-expressed with MD-2 and CD14) (Homo sapiens) (UniProt O00206); assay: competition with a labelled probe; conditions: equimolar 100 nM with ApTOLL-Dig, protein on the cell surface, protein details: HEK-Blue hTLR4 cells, InvivoGen Hkb-htlr4, single-stranded DNA, variant of ApTOLL (ApTLR#4FT, 4F-T)
[3] = TLR4 antagonist comparable to ApTOLL, concentration dependent (20, 200 nM)

| Sequence | functional effect of the aptamer ([1]; TLR4 antagonist, not concentration dependent (20, 200 nM)) | functional effect of the aptamer [1, 3] | binding result ([2]; lowest of the mutants) | binding result [2] |
| --- | --- | --- | --- | --- |
| CCTGTGCCAATAAAGGATACCGCCGCGTTAGCATGTACTCGGTTGGCCCAAATACGAG [ApTOLL-Mut 4] | active | – | – | – |
| CCTGTGCCAATAAAGGATACCGCCGCGTTAGCATGTACTCGGTTGGCCCTAAATACGAG [ApTOLL-Mut 1] | – | active | – | – |
| GGTGTGCCAATAAACCATACCGCCGCGTTAGCATGTACCTGGTTGGCCCCAAATACAGG [ApTOLL-Mut 6] | – | active | – | – |
| GGTGTGCCAATAAACCATATCGCCGCGTTAGCATGTACAGGGTTGGCCCCAAATACCTG [ApTOLL-Mut 2] | – | active | binds | – |
| TCCTGTGCCAATAAAGGATACCGCCGCGTTAGCATGTACTCGGTTGGCCCTAAATACGAG [ApTOLL-Mut 3] | – | active | – | binds |
| TCCTGTGCCAATAAAGGATACCGCCGCGTTAGCATGTACTCGGTTGGCCCTAAATACGAGT [ApTOLL-Mut 5] | – | active | – | binds |
